The text below walks through data of the supplement of paper PMC3545927.

Protein sequences, listed by entry. Tags and fused reporters are not part of them.
furin, P09958, UniProt P09958, whole entry: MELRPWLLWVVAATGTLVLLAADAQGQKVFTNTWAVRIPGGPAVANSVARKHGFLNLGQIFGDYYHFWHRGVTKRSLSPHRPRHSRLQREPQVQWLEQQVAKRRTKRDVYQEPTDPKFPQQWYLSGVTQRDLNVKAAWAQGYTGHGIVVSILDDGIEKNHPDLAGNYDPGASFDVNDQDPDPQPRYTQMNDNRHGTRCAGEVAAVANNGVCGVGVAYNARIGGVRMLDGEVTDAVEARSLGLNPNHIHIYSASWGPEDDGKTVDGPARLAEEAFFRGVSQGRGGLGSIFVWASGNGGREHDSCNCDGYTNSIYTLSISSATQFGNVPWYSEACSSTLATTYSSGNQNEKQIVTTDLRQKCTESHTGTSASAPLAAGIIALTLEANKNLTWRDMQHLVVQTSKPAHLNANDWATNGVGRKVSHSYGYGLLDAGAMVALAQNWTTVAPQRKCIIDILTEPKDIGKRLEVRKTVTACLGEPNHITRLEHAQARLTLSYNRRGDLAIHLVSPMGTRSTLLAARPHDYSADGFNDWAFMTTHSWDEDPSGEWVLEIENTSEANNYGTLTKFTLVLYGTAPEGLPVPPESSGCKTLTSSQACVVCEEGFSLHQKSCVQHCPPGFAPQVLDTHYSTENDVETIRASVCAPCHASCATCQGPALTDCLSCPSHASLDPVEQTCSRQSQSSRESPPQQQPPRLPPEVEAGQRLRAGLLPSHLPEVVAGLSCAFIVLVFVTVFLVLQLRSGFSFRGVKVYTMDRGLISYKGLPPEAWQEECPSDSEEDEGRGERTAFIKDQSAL

The assay concerns the target furin, P09958. The experiment in a line: furin cleavage Z-score vs untreated control; higher = more cleavage, active = 3.5 or more, inactive = 1 or less, 8 variable residues between constant flanks. Put shortly:
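Furin cleavage was scored on 8-mer peptides joined to a cDNA oligonucleotide and bound to magnetic beads at the N-terminus. Digestion with purified furin (1:10 enzyme:substrate, 0.01 ml, 50 mM HEPES pH 7.5, CaCl2, NaCl) lasted 7.5, 15 or 30 min. Freed DNA was tagged with adapters by PCR, sequenced and counted; the cleavage Z-score is the lowess-adjusted log count versus furin-free reactions, scaled by median absolute deviation.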

The entries are a selection whose mix differs from that of the whole data set.

As to CAENEVPCHRAGNASASA [HC2461], the “furin cleavage Z-score” value runs as follows: (7.5 min) 1.97; (15 min) 1.76; (30 min) 1.47.
Take CAVVCFSMSYAGNASASA [HC86]: the “furin cleavage Z-score” value is, setting by setting: (7.5 min) inactive: -0.132; (15 min) 1.31; (30 min) inactive: 0.28.
Regarding CARNRRKRKGAGNASASA [FS-1562], the “furin cleavage Z-score” value was 1.48 (7.5 min), 2.38 (15 min) and 2.16 (30 min).
CAVVKRDVDEAGNASASA [FS-2201]: the “furin cleavage Z-score” value (7.5 min) came to 1.71, the “furin cleavage Z-score” value (15 min) came out at 1.34 and the “furin cleavage Z-score” value (30 min) was determined as 2.32.
On to CADYSRFVRDAGNASASA [FS-18], for which the “furin cleavage Z-score” value worked out at 1.97 (7.5 min), 2.91 (15 min) and 2.73 (30 min).
Taken in the same sequence, the figures for CARPARSATGAGNASASA [FS-2052] were 1.63, 2.59 and 2.68.
For the sequence CAELSRLRRLAGNASASA [FS-1192], the “furin cleavage Z-score” value reads like this: (7.5 min) 1.8; (15 min) 1.93; (30 min) 2.71.
As for CALSERQNRSAGNASASA [FS-550], the “furin cleavage Z-score” value came out at 2.28 (7.5 min), 1.08 (15 min) and 1.81 (30 min).
In the case of CARKKRLEPTAGNASASA [FS-2154], the “furin cleavage Z-score” value by setting is: (7.5 min) 1.02; (15 min) 1.99; (30 min) 2.51.
CAVWIPPLNVAGNASASA [HC590]: the “furin cleavage Z-score” value was found to be 1.75 (7.5 min), 2.11 (15 min) and 1.01 (30 min).
With CAMSSRNFRFAGNASASA [FS-62], the “furin cleavage Z-score” value (7.5 min) worked out at 1.34, the “furin cleavage Z-score” value (15 min) was 1.29 and the “furin cleavage Z-score” value (30 min) worked out at 1.2.
Turning to CALRKRRKRKAGNASASA [FS-1030], the “furin cleavage Z-score” value (7.5 min) is active: 10.7, the “furin cleavage Z-score” value (15 min) was active: 11.4 and the “furin cleavage Z-score” value (30 min) was active: 9.12.
On to CARALRLVDGAGNASASA [FS-2410], for which the “furin cleavage Z-score” value by setting is: (7.5 min) inactive: -0.828; (15 min) inactive: -0.615; (30 min) inactive: -0.629.
Taken in the same sequence, the figures for CAERSRVCRCAGNASASA [FS-123] were inactive: -0.711, inactive: 0.103 and 2.18.
As to CARRQRRVAGAGNASASA [FS-2180], the “furin cleavage Z-score” value is, setting by setting: (7.5 min) 1.21; (15 min) 1.08; (30 min) 1.63.
Taken in the same sequence, the figures for CAAVHPTLVFAGNASASA [HC600] were 2.24, 1.33 and 1.6.
As for CARHRRFRLDAGNASASA [FS-2024], the “furin cleavage Z-score” value reads like this: (7.5 min) 1.24; (15 min) 1.94; (30 min) 2.02.
With CARASRSIRIAGNASASA [FS-2893], the “furin cleavage Z-score” value by setting is: (7.5 min) active: 3.6; (15 min) active: 6.75; (30 min) active: 7.27.
